Results on six sequences are retold here after PMC8977021, “bZIP transcription factors PcYap1 and PcRsmA link oxidative stress response to secondary metabolism and development in Penicillium chrysogenum”.

For some assays here: No signal at the amounts used counts as a negative. For at least one entry, the source does not settle the construct or the ends of the probe. For some assays here: At least one verdict was read from the data and is not stated in words by the source. For some assays here: Where a protein sequence is shown, tags need not be part of it.

Data set [1] concerns the target T1, PcRsmA (UniProt B6GZ21).
T1 sequence (looked up): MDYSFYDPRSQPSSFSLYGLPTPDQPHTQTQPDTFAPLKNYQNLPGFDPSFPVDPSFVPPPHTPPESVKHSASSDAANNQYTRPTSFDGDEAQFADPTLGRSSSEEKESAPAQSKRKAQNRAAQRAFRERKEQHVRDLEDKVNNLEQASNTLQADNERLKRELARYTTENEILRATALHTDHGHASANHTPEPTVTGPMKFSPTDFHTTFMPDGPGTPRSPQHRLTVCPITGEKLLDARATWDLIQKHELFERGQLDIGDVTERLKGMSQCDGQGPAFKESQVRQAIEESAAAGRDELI
Kind of data set: EMSA. The settings on record: LightShift binding buffer 1X, about 10% glycerol, 5 mM MgCl2, 20 fmol biotin probe, 10 ug protein, 20 uL, room temperature 20 min; 5% native PAGE in 0.5X TBE; recombinant protein; residues 1-299; protein details: C-terminal c-myc-6xHis; label: 3' biotin; probe letters rebuilt from the primers and the genome.

A further data set addresses T2, PcYap1 (UniProt B6HDY4).
T2 sequence (looked up, limits assumed): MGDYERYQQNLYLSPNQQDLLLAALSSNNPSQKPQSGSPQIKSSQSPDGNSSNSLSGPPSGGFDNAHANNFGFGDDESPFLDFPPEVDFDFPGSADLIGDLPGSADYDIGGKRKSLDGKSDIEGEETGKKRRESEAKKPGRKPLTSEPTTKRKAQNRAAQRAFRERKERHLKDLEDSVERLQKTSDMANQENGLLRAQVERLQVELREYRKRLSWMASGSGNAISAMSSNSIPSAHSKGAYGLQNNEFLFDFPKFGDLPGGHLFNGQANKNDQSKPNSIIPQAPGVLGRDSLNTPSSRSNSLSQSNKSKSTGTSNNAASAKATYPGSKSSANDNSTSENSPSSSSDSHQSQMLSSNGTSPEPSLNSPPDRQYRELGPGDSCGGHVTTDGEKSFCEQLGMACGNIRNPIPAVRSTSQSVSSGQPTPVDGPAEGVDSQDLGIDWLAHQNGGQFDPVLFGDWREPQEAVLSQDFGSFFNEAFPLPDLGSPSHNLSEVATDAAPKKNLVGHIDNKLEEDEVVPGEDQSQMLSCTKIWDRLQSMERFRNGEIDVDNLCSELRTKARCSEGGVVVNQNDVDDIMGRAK
Put plainly: EMSA. The settings on record: LightShift binding buffer 1X, about 10% glycerol, 5 mM MgCl2, 20 fmol biotin probe, 10 ug protein, 20 uL, room temperature 20 min; 5% native PAGE in 0.5X TBE; recombinant protein; protein details: C-terminal c-myc-6xHis; label: 3' biotin; probe letters rebuilt from the primers and the genome. For orientation: Mobility shift assays separate free from complexed probe on a gel.

Data set [2] has as its target T1, PcRsmA. Kind of data set: competition with a labelled probe. The conditions noted are these: unlabelled 50-200x vs labelled RsmA-2C; LightShift binding buffer 1X, about 10% glycerol, 5 mM MgCl2, 20 fmol biotin probe, 10 ug protein, 20 uL, room temperature 20 min; 5% native PAGE in 0.5X TBE; recombinant protein; residues 1-299; protein details: C-terminal c-myc-6xHis; label: 3' biotin.

In the case of “TGTTTATGCTGAGACAACCTGGAGACATTATACGCTTGCAGCCCAGATGCTTACTGGATGGGGCCGCTGGAGCCAGTGTAAAATTAGTAACCGTATCTC (double strand) [upPta1]”, the binding result with PcRsmA [1] and in the data set with PcYap1 was “binds” in each case. With “ATGTCTCCAGGTTGTCTCAGCATAAACACCCCGCCCCCGCTCAGGCACACAGGAAGAGAGCTCAGGTCGTTTCCATTGCGTCCATACTCTTCACTCATTGTCATCTGCAGGAGAACTTCCCCTGTCCCTTTGCCAAGCCCTCTCTTCGTCGTTGTCCACGCCTTCAAGTTTTCACCATTATTTTTCTAGACACCATGGCTTCC (double strand) [probe 6]”, the binding result with PcRsmA [1] and with PcYap1 was “no binding” each time.

“AACGACGGCGATGTTCCAAGGTAAACCGGCACGTAGAAAATGTCCGGACCACCTTGGCTCTCGTTGCAGCGTGTTGAATCTTCAGCCACCATAAGTCGATAGCATCCGGTTAGAGTGCAACGTGGGTCTGTCTCATTCTTCTCGGTTCTTGGCACCAGAATCGGGCGTAGTTTGCCCACTGCCAAG (double strand) [probe 3]”: the binding result with PcRsmA [1] and with PcYap1 was “no binding” in each case. Consider “CTCCAGGTTGTCTCAGCATAAACA (double strand) [RsmA-2C]”, for which the binding result in the data set with PcRsmA [2] is “binds”. As for “TTGCCCACTGCCAAGTCGCGGGGCCGCTTGGCTGTCCTTGTGGTGGGATTTCCCGATGCAACATGCAGATACATGTAGTCGACAGTTGACAGAGCCAATGGCATCGGATCTGCCGTAGACCGTGCTAGACGAAAGTCTCCATCTTGTCTGCGGGCAGTGCTTCAGTCGCCCAGATTCTCGATGGAGATTGGCCAG (double strand) [probe 2]”, the binding result in the data set with PcRsmA [1] and with PcYap1 was “no binding” in each case. For “ATGGAGATTGGCCAGGTCAGCCATATATACCCTGCAATGGCAGACCAATGCAGCAGGCCCAGTATAAGGAATTCCCCTCGAGCTTGTCTGTGATTGCGTTTTTTCTAACACTTGTTGTTGCATCCGATCCGTCCCTACCAATTATTGGTCATTGACAGAGATGACTCAACTGAAGCCACCGAACGGAACCACGCCGAT (double strand) [probe 1]”, the binding result with PcRsmA [1] and with PcYap1 was “no binding” throughout.
